Experimental data published in patent US20260079169A1, “VOLATILE ORGANIC COMPOUNDS AS MARKERS FOR CELLULAR COMMUNICATION” (Technion Research and Development Foundation Limited, priority 2020, published 2026).

Key:
[1] = test system: A549, H1299, H1975 human lung cancer lines and BEAS-2B normal cell line, each cultured alone; test: VOCs headspace analysis (ITEX GC-MS) of mono-culture groups (Format-1), bulk cell samples 1×10^4 cells; type: cell-based; conditions: bulk 1 × 10^4 cell
[2] = test system: different-cell pairs of BEAS-2B, A549, H1299, H1975 without physical contact under a mutual headspace; test: VOCs headspace analysis (ITEX GC-MS) of different-cell pair co-culture headspace groups (Format-3), bulk cell samples; type: cell-based, human; conditions: bulk 1 × 10^4 cell

CC1(c2ccccc2)CNC1 [VOC73]
VOC level in headspace, area under curve (AUC) normalized by STD AUC ([1]; A (BEAS-2B) mono-culture): 0 | VOC level in headspace, area under curve (AUC) normalized by STD AUC ([1]; B (A549) mono-culture): 0 | VOC level in headspace, area under curve (AUC) normalized by STD AUC ([1]; C (H1299) mono-culture): 8.0569 | VOC level in headspace, area under curve (AUC) normalized by STD AUC ([1]; D (H1975) mono-culture): 0 | VOC level in headspace, area under curve (AUC) normalized by STD AUC ([2]; A + B (BEAS-2B + A549)): 0 | VOC level in headspace, area under curve (AUC) normalized by STD AUC ([2]; A + C (BEAS-2B + H1299)): 6.872 | VOC level in headspace, area under curve (AUC) normalized by STD AUC ([2]; A + D (BEAS-2B + H1975)): 0 | VOC level in headspace, area under curve (AUC) normalized by STD AUC ([2]; B + C (A549 + H1299)): 3.685 | VOC level in headspace, area under curve (AUC) normalized by STD AUC ([2]; B + D (A549 + H1975)): 0 | VOC level in headspace, area under curve (AUC) normalized by STD AUC ([2]; C + D (H1299 + H1975)): 2.033

CCCC(O)C(CC)COC(=O)C(C)C (stereo not drawn) [VOC74]
VOC level in headspace, area under curve (AUC) normalized by STD AUC ([1]; A (BEAS-2B) mono-culture): 0 | VOC level in headspace, area under curve (AUC) normalized by STD AUC ([1]; B (A549) mono-culture): 5.99 | VOC level in headspace, area under curve (AUC) normalized by STD AUC ([1]; C (H1299) mono-culture): 0 | VOC level in headspace, area under curve (AUC) normalized by STD AUC ([1]; D (H1975) mono-culture): 0 | VOC level in headspace, area under curve (AUC) normalized by STD AUC ([2]; A + B (BEAS-2B + A549)): 3.298 | VOC level in headspace, area under curve (AUC) normalized by STD AUC ([2]; A + C (BEAS-2B + H1299)): 0 | VOC level in headspace, area under curve (AUC) normalized by STD AUC ([2]; A + D (BEAS-2B + H1975)): 0 | VOC level in headspace, area under curve (AUC) normalized by STD AUC ([2]; B + C (A549 + H1299)): 0.9397 | VOC level in headspace, area under curve (AUC) normalized by STD AUC ([2]; B + D (A549 + H1975)): 0 | VOC level in headspace, area under curve (AUC) normalized by STD AUC ([2]; C + D (H1299 + H1975)): 0

CC(=O)CC(C)CC(C)C (stereo not drawn) [VOC75]
VOC level in headspace, area under curve (AUC) normalized by STD AUC ([1]; A (BEAS-2B) mono-culture): 5.927 | VOC level in headspace, area under curve (AUC) normalized by STD AUC ([1]; B (A549) mono-culture): 0 | VOC level in headspace, area under curve (AUC) normalized by STD AUC ([1]; C (H1299) mono-culture): 6.8085 | VOC level in headspace, area under curve (AUC) normalized by STD AUC ([1]; D (H1975) mono-culture): 0 | VOC level in headspace, area under curve (AUC) normalized by STD AUC ([2]; A + B (BEAS-2B + A549)): 5.963 | VOC level in headspace, area under curve (AUC) normalized by STD AUC ([2]; A + C (BEAS-2B + H1299)): 7.129 | VOC level in headspace, area under curve (AUC) normalized by STD AUC ([2]; A + D (BEAS-2B + H1975)): 0 | VOC level in headspace, area under curve (AUC) normalized by STD AUC ([2]; B + C (A549 + H1299)): 4.898 | VOC level in headspace, area under curve (AUC) normalized by STD AUC ([2]; B + D (A549 + H1975)): 0 | VOC level in headspace, area under curve (AUC) normalized by STD AUC ([2]; C + D (H1299 + H1975)): 2.595

CC1(C)CCO1 [VOC76]
VOC level in headspace, area under curve (AUC) normalized by STD AUC ([1]; A (BEAS-2B) mono-culture): 0 | VOC level in headspace, area under curve (AUC) normalized by STD AUC ([1]; B (A549) mono-culture): 0 | VOC level in headspace, area under curve (AUC) normalized by STD AUC ([1]; C (H1299) mono-culture): 4.9305 | VOC level in headspace, area under curve (AUC) normalized by STD AUC ([1]; D (H1975) mono-culture): 0 | VOC level in headspace, area under curve (AUC) normalized by STD AUC ([2]; A + B (BEAS-2B + A549)): 0 | VOC level in headspace, area under curve (AUC) normalized by STD AUC ([2]; A + C (BEAS-2B + H1299)): 5.974 | VOC level in headspace, area under curve (AUC) normalized by STD AUC ([2]; A + D (BEAS-2B + H1975)): 0 | VOC level in headspace, area under curve (AUC) normalized by STD AUC ([2]; B + C (A549 + H1299)): 2.377 | VOC level in headspace, area under curve (AUC) normalized by STD AUC ([2]; B + D (A549 + H1975)): 0 | VOC level in headspace, area under curve (AUC) normalized by STD AUC ([2]; C + D (H1299 + H1975)): 0

CC(O)(C(=O)O)C(=O)O [VOC77]
VOC level in headspace, area under curve (AUC) normalized by STD AUC ([1]; A (BEAS-2B) mono-culture): 0 | VOC level in headspace, area under curve (AUC) normalized by STD AUC ([1]; B (A549) mono-culture): 0 | VOC level in headspace, area under curve (AUC) normalized by STD AUC ([1]; C (H1299) mono-culture): 0 | VOC level in headspace, area under curve (AUC) normalized by STD AUC ([1]; D (H1975) mono-culture): 7.098 | VOC level in headspace, area under curve (AUC) normalized by STD AUC ([2]; A + B (BEAS-2B + A549)): 0 | VOC level in headspace, area under curve (AUC) normalized by STD AUC ([2]; A + C (BEAS-2B + H1299)): 0 | VOC level in headspace, area under curve (AUC) normalized by STD AUC ([2]; A + D (BEAS-2B + H1975)): 6.282 | VOC level in headspace, area under curve (AUC) normalized by STD AUC ([2]; B + C (A549 + H1299)): 0 | VOC level in headspace, area under curve (AUC) normalized by STD AUC ([2]; B + D (A549 + H1975)): 5.793 | VOC level in headspace, area under curve (AUC) normalized by STD AUC ([2]; C + D (H1299 + H1975)): 2.664

CCO [VOC78]
VOC level in headspace, area under curve (AUC) normalized by STD AUC ([1]; A (BEAS-2B) mono-culture): 0 | VOC level in headspace, area under curve (AUC) normalized by STD AUC ([1]; B (A549) mono-culture): 5.613 | VOC level in headspace, area under curve (AUC) normalized by STD AUC ([1]; C (H1299) mono-culture): 6.3364 | VOC level in headspace, area under curve (AUC) normalized by STD AUC ([1]; D (H1975) mono-culture): 0 | VOC level in headspace, area under curve (AUC) normalized by STD AUC ([2]; A + B (BEAS-2B + A549)): 5.416 | VOC level in headspace, area under curve (AUC) normalized by STD AUC ([2]; A + C (BEAS-2B + H1299)): 5.832 | VOC level in headspace, area under curve (AUC) normalized by STD AUC ([2]; A + D (BEAS-2B + H1975)): 0 | VOC level in headspace, area under curve (AUC) normalized by STD AUC ([2]; B + C (A549 + H1299)): 2.398 | VOC level in headspace, area under curve (AUC) normalized by STD AUC ([2]; B + D (A549 + H1975)): 1.36 | VOC level in headspace, area under curve (AUC) normalized by STD AUC ([2]; C + D (H1299 + H1975)): 0.3177
